In patent US6599501B1 (Steeno Research Group A/S, priority 1994, dated 2003):

Assay: peptide made by a vendor
Settings: whole synthesis

Substance: PEPTIDE1{A.Y.M.T.M.K.I.R.N}$$$$V2.0
- final HPLC purity: exceed 95%

Strings that start with PEPTIDE1 are HELM notation: dots part the residues, brackets hold end groups and non-standard residues.
